Assay [1] deals with split Venus-tagged human Protein Kinase RNA-activated (PKR), wild type (human) (UniProt P19525). Briefly: affinity purification with mass spectrometry; HEK293 with suppressed PKR expression co-transfected with complementary split Venus-tagged PKR (100 ng) and RPIA (500 ng); RIPA lysate with phosphatase inhibitors after 48 h; reconstituted Venus complexes captured by GFP-Trap, trypsin digest, LC-MS/MS.

The chains behind the UniProt entries cited, without tags or fusion partners. Where a name states a change or a piece, a line headed by the entry shows the natural chain unless it says otherwise.
UniProt P19525: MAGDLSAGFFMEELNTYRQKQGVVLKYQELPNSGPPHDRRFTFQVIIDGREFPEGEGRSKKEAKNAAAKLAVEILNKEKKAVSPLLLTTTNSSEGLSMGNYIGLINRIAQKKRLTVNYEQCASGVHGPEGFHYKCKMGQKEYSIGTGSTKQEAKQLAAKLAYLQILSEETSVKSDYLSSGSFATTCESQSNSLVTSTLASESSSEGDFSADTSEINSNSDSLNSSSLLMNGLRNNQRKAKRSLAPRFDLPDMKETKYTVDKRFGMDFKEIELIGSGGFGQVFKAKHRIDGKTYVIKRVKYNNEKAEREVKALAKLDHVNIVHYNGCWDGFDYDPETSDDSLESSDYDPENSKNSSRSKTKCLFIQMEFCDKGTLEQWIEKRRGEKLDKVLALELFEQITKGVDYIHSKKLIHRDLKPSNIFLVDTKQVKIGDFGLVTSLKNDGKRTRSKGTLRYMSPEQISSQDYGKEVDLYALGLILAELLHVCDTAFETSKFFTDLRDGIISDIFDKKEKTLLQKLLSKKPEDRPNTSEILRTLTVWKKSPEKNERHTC
UniProt P49247: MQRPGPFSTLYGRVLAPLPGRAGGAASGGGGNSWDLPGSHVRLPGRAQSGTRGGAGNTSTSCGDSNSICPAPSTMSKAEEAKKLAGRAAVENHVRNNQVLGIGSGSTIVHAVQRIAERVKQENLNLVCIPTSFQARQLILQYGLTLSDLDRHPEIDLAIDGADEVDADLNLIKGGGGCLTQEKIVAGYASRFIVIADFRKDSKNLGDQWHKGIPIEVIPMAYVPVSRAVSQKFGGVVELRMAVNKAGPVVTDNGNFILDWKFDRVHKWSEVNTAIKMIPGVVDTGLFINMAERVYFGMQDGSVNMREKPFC

Assay [2] deals with split Venus-tagged human Protein Kinase RNA-activated (PKR), kinase-dead point mutant K296R (human) (UniProt P19525). The assay is described as above.

These are yes or no findings as the source states them, for the method shown. In cells and extracts the contact can be indirect. Here binding means that the protein was enriched with, or labelled near, the bait; the list need not be complete.

For “split Venus-tagged human Ribose 5-Phosphate Isomerase A (RPIA) (from UniProt P49247 1-311) (enzyme)”, the binding result in assay [1] and in assay [2] was “binds” in each case.

(Values after PMC11217295, “The immune response to RNA suppresses nucleic acid synthesis by limiting ribose 5-phosphate” (The EMBO Journal, 2024).)
